Laboratory results: publication PMC11780864, “RNA G-quadruplex structure-based PROTACs for targeted DHX36 protein degradation and gene activity modulation in mammalian cells”
The exact form of at least one protein or probe is not confirmed. Where a protein sequence is shown, tags need not be part of it.

Biological target: T1, RHAU53 peptide (DHX36 fragment) (UniProt Q9H2U1)
T1 sequence (limits assumed): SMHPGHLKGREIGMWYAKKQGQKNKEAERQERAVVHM
Test: competition with a labelled probe
Conditions: EMSA vs 30 nM FAM_rG4_A, 100 nM RHAU53, incomplete displacement; 5'-hexynyl clicked to AHPC-PEG2; EMSA and MST: 25 mM Tris-HCl pH 7.5, 150 mM KCl, 1 mM MgCl2, 37 C 30 min; 30 nM (EMSA) or 40 nM (MST) FAM-oligo; EMSA gel 10% native PAGE, 0.5x TBE, 4 C; folded or branched DNA

TTGGGTGGGTGGGTGGGT [dG4_A (unlabelled)]
IC50: 684 nM
